These are yes or no findings as the source states them, for the method shown.
Biological target: CHOP_(1-120) (C/EBP-homologous protein, N-terminal and basic regions, residues 1 to 120) (human) (UniProt P35638)
Assay: AUC; sedimentation equilibrium (short column, 20 and 24 krpm, single species model) and sedimentation velocity (48 krpm), 20°C, protein at 1.08 mg/ml, absorbance at 280 nm; both purified

binding: no binding (tested: 1.08 mg/ml)
B1: CHOP_(1-120) (C/EBP-homologous protein, N-terminal and basic regions, residues 1 to 120) (domain or fragment, UniProt P35638 1-120)
chain: MAAESLPFSFGTLSSWELEAWYEDLQEVLSSDENGGTYVSPPGNEEEESKIFTTLDPASLAWLTEEEPEPAEVTSTSQSPHSPDSSQSSLAQEEEEEDQGRTRKRKQSGHSPARAGKQRM
